Source: US12729225B2, “Non-canonical SWI/SNF complex and uses thereof” (Dana-Farber Cancer Institute, Inc., priority 2018, dated 2026)

Test system: mSWI/SNF complexes
Test: mSWI/SNF complex purification with HA-tagged baits and mass spectrometry (peptide counts)
Set-up: species or system human
[1] = 293_HA-BRD7: HA-BRD7 bait purification, total peptide count per co-purified protein
[2] = 293_HA-BRD7: HA-BRD7 bait purification, unique peptide count per co-purified protein

Molecule | Total [1] | Unique [2] | Total (293_HA-DPF2 purification, total peptides) | Unique (293_HA-DPF2 purification, unique peptides)
ARL6IP4 (protein, UniProt Q66PJ3 1-237, looked up) ADP-ribosylation factor-like …: MAHVGSRKRSRSRSRSRGRGSEKRKKKSRKDTSRNCSASTSQGRKASTAPGAEASPSPCITERSKQKARRRTRSSSSSSSSSSSSSSSSSSSSSSSSSDGRKKRGKYKDKRRKKKKKRKKLKKKGKEKAEAQQVEALPGPSLDQWHRSAGEEEDGPVLTDEQKSRIQAMKPMTKEEWDARQSIIRKVVDPETGRTRLIKGDGEVLEEIVTKERHREINKQATRGDCLAFQMRAGLLP | 4 | 4 | – | –
SLC25A5 (protein, UniProt P05141 1-298, looked up) ADP/ATP translocase 2: MTDAAVSFAKDFLAGGVAAAISKTAVAPIERVKLLLQVQHASKQITADKQYKGIIDCVVRIPKEQGVLSFWRGNLANVIRYFPTQALNFAFKDKYKQIFLGGVDKRTQFWLYFAGNLASGGAAGATSLCFVYPLDFARTRLAADVGKAGAEREFRGLGDCLVKIYKSDGIKGLYQGFNVSVQGIIIYRAAYFGIYDTAKGMLPDPKNTHIVISWMIAQTVTAVAGLTSYPFDTVRRRMMMQSGRKGTDIMYTGTLDCWRKIARDEGGKAFFKGAWSNVLRGMGGAFVLVLYDEIKKYT | 6 | 4 | 3 | 3
DPM1 (protein, UniProt O60762 2-260, looked up) Dolichol-phosphate …: ASLEVSRSPRRSRRELEVRSPRQNKYSVLLPTYNERENLPLIVWLLVKSFSESGINYEIIIIDDGSPDGTRDVAEQLEKIYGSDRILLRPREKKLGLGTAYIHGMKHATGNYIIIMDADLSHHPKFIPEFIRKQKEGNFDIVSGTRYKGNGGVYGWDLKRKIISRGANFLTQILLRPGASDLTGSFRLYRKEVLEKLIEKCVSKGYVFQMEMIVRARQLNYTIGEVPISFVDRVYGESKLGGNEIVSFLKGLLTLFATT | 5 | 4 | – | –
TOMM22 (protein, UniProt Q9NS69 2-142, looked up) Mitochondrial import receptor …: AAAVAAAGAGEPQSPDELLPKGDAEKPEEELEEDDDEELDETLSERLWGLTEMFPERVRSAAGATFDLSLFVAQKMYRFSRAALWIGTTSFMILVLPVVFETEKLQMEQQQQLQQRQILLGPNTGLSGGMPGALPSLPGKI | 4 | 4 | – | –
NUP107 (protein, UniProt P57740 1-925, looked up) Nuclear pore complex protein …: MDRSGFGEISSPVIREAEVTRTARKQSAQKRVLLQASQDENFGNTTPRNQVIPRTPSSFRQPFTPTSRSLLRQPDISCILGTGGKSPRLTQSSGFFGNLSMVTNLDDSNWAAAFSSQRSGLFTNTEPHSITEDVTISAVMLREDDPGEAASMSMFSDFLQSFLKHSSSTVFDLVEEYENICGSQVNILSKIVSRATPGLQKFSKTASMLWLLQQEMVTWRLLASLYRDRIQSALEEESVFAVTAVNASEKTVVEALFQRDSLVRQSQLVVDWLESIAKDEIGEFSDNIEFYAKSVYWENTLHTLKQRQLTSYVGSVRPLVTELDPDAPIRQKMPLDDLDREDEVRLLKYLFTLIRAGMTEEAQRLCKRCGQAWRAATLEGWKLYHDPNVNGGTELEPVEGNPYRRIWKISCWRMAEDELFNRYERAIYAALSGNLKQLLPVCDTWEDTVWAYFRVMVDSLVEQEIQTSVATLDETEELPREYLGANWTLEKVFEELQATDKKRVLEENQEHYHIVQKFLILGDIDGLMDEFSKWLSKSRNNLPGHLLRFMTHLILFFRTLGLQTKEEVSIEVLKTYIQLLIREKHTNLIAFYTCHLPQDLAVAQYALFLESVTEFEQRHHCLELAKEADLDVATITKTVVENIRKKDNGEFSHHDLAPALDTGTTEEDRLKIDVIDWLVFDPAQRAEALKQGNAIMRKFLASKKHEAAKEVFVKIPQDSIAEIYNQCEEQGMESPLPAEDDNAIREHLCIRAYLEAHETFNEWFKHMNSVPQKPALIPQPTFTEKVAHEHKEKKYEMDFGIWKGHLDALTADVKEKMYNVLLFVDGGWMVDVREDAKEDHERTHQMVLLRKLCLPMLCFLLHTILHSTGQYQECLQLADMVSSERHKLYLVFSKEELRKLLQKLRESSLMLLDQGLDPLGYEIQL | 5 | 4 | – | –
IDH3A (protein, UniProt P50213 28-366, looked up) Isocitrate dehydrogenase …: TGGVQTVTLIPGDGIGPEISAAVMKIFDAAKAPIQWEERNVTAIQGPGGKWMIPSEAKESMDKNKMGLKGPLKTPIAAGHPSMNLLLRKTFDLYANVRPCVSIEGYKTPYTDVNIVTIRENTEGEYSGIEHVIVDGVVQSIKLITEGASKRIAEFAFEYARNNHRSNVTAVHKANIMRMSDGLFLQKCREVAESCKDIKFNEMYLDTVCLNMVQDPSQFDVLVMPNLYGDILSDLCAGLIGGLGVTPSGNIGANGVAIFESVHGTAPDIAGKDMANPTALLLSAVMMLRHMGLFDHAARIEAACFATIKDGKSLTKDLGGNAKCSDFTEEICRRVKDLD | 6 | 4 | – | –
SRPRB (protein, UniProt Q9Y5M8 1-271, looked up) Signal recognition particle …: MASADSRRVADGGGAGGTFQPYLDTLRQELQQTDPTLLSVVVAVLAVLLTLVFWKLIRSRRSSQRAVLLVGLCDSGKTLLFVRLLTGLYRDTQTSITDSCAVYRVNNNRGNSLTLIDLPGHESLRLQFLERFKSSARAIVFVVDSAAFQREVKDVAEFLYQVLIDSMGLKNTPSFLIACNKQDIAMAKSAKLIQQQLEKELNTLRVTRSAAPSTLDSSSTAPAQLGKKGKEFEFSQLPLKVEFLECSAKGGRGDVGSADIQDLEKWLAKIA | 4 | 4 | – | –
HNRNPD (protein, UniProt Q14103 2-355, looked up) Heterogeneous nuclear …: SEEQFGGDGAAAAATAAVGGSAGEQEGAMVAATQGAAAAAGSGAGTGGGTASGGTEGGSAESEGAKIDASKNEEDEGHSNSSPRHSEAATAQREEWKMFIGGLSWDTTKKDLKDYFSKFGEVVDCTLKLDPITGRSRGFGFVLFKESESVDKVMDQKEHKLNGKVIDPKRAKAMKTKEPVKKIFVGGLSPDTPEEKIREYFGGFGEVESIELPMDNKTNKRRGFCFITFKEEEPVKKIMEKKYHNVGLSKCEIKVAMSKEQYQQQQQWGSRGGFAGRARGRGGGPSQNWNQGYSNYWNQGYGNYGYNSQGYGGYGGYDYTGYNNYYGYGDYSNQQSGYGKVSRRGGHQNSYKPY | 4 | 4 | – | –
DDX18 (protein, UniProt Q9NVP1 1-670, looked up) ATP-dependent RNA helicase …: MSHLPMKLLRKKIEKRNLKLRQRNLKFQGASNLTLSETQNGDVSEETMGSRKVKKSKQKPMNVGLSETQNGGMSQEAVGNIKVTKSPQKSTVLTNGEAAMQSSNSESKKKKKKKRKMVNDAEPDTKKAKTENKGKSEEESAETTKETENNVEKPDNDEDESEVPSLPLGLTGAFEDTSFASLCNLVNENTLKAIKEMGFTNMTEIQHKSIRPLLEGRDLLAAAKTGSGKTLAFLIPAVELIVKLRFMPRNGTGVLILSPTRELAMQTFGVLKELMTHHVHTYGLIMGGSNRSAEAQKLGNGINIIVATPGRLLDHMQNTPGFMYKNLQCLVIDEADRILDVGFEEELKQIIKLLPTRRQTMLFSATQTRKVEDLARISLKKEPLYVGVDDDKANATVDGLEQGYVVCPSEKRFLLLFTFLKKNRKKKLMVFFSSCMSVKYHYELLNYIDLPVLAIHGKQKQNKRTTTFFQFCNADSGTLLCTDVAARGLDIPEVDWIVQYDPPDDPKEYIHRVGRTARGLNGRGHALLILRPEELGFLRYLKQSKVPLSEFDFSWSKISDIQSQLEKLIEKNYFLHKSAQEAYKSYIRAYDSHSLKQIFNVNNLNLPQVALSFGFKVPPFVDLNVNSNEGKQKKRGGGGGFGYQKTKKVEKSKIFKHISKKSSDSRQFSH | 5 | 5 | – | –
SYNCRIP (protein, UniProt O60506 2-623, looked up) Heterogeneous nuclear …: ATEHVNGNGTEEPMDTTSAVIHSENFQTLLDAGLPQKVAEKLDEIYVAGLVAHSDLDERAIEALKEFNEDGALAVLQQFKDSDLSHVQNKSAFLCGVMKTYRQREKQGTKVADSSKGPDEAKIKALLERTGYTLDVTTGQRKYGGPPPDSVYSGQQPSVGTEIFVGKIPRDLFEDELVPLFEKAGPIWDLRLMMDPLTGLNRGYAFVTFCTKEAAQEAVKLYNNHEIRSGKHIGVCISVANNRLFVGSIPKSKTKEQILEEFSKVTEGLTDVILYHQPDDKKKNRGFCFLEYEDHKTAAQARRRLMSGKVKVWGNVGTVEWADPIEDPDPEVMAKVKVLFVRNLANTVTEEILEKAFSQFGKLERVKKLKDYAFIHFDERDGAVKAMEEMNGKDLEGENIEIVFAKPPDQKRKERKAQRQAAKNQMYDDYYYYGPPHMPPPTRGRGRGGRGGYGYPPDYYGYEDYYDYYGYDYHNYRGGYEDPYYGYEDFQVGARGRGGRGARGAAPSRGRGAAPPRGRAGYSQRGGPGSARGVRGARGGAQQQRGRGVRGARGGRGGNVGGKRKADGYNQPDSKRRQTNNQNWGSQPIAQQPLQGGDHSGNYGYKSENQEFYQDTFGQQWK | 4 | 4 | – | –
RTCB (protein, UniProt Q9Y3I0 1-505, looked up) RNA-splicing ligase RtcB …: MSRSYNDELQFLEKINKNCWRIKKGFVPNMQVEGVFYVNDALEKLMFEELRNACRGGGVGGFLPAMKQIGNVAALPGIVHRSIGLPDVHSGYGFAIGNMAAFDMNDPEAVVSPGGVGFDINCGVRLLRTNLDESDVQPVKEQLAQAMFDHIPVGVGSKGVIPMNAKDLEEALEMGVDWSLREGYAWAEDKEHCEEYGRMLQADPNKVSARAKKRGLPQLGTLGAGNHYAEIQVVDEIFNEYAAKKMGIDHKGQVCVMIHSGSRGLGHQVATDALVAMEKAMKRDKIIVNDRQLACARIASPEGQDYLKGMAAAGNYAWVNRSSMTFLTRQAFAKVFNTTPDDLDLHVIYDVSHNIAKVEQHVVDGKERTLLVHRKGSTRAFPPHHPLIAVDYQLTGQPVLIGGTMGTCSYVLTGTEQGMTETFGTTCHGAGRALSRAKSRRNLDFQDVLDKLADMGIAIRVASPKLVMEEAPESYKNVTDVVNTCHDAGISKKAIKLRPIAVIKG | 5 | 5 | – | –
TKT (protein, UniProt P29401 1-623, looked up) Transketolase: MESYHKPDQQKLQALKDTANRLRISSIQATTAAGSGHPTSCCSAAEIMAVLFFHTMRYKSQDPRNPHNDRFVLSKGHAAPILYAVWAEAGFLAEAELLNLRKISSDLDGHPVPKQAFTDVATGSLGQGLGAACGMAYTGKYFDKASYRVYCLLGDGELSEGSVWEAMAFASIYKLDNLVAILDINRLGQSDPAPLQHQMDIYQKRCEAFGWHAIIVDGHSVEELCKAFGQAKHQPTAIIAKTFKGRGITGVEDKESWHGKPLPKNMAEQIIQEIYSQIQSKKKILATPPQEDAPSVDIANIRMPSLPSYKVGDKIATRKAYGQALAKLGHASDRIIALDGDTKNSTFSEIFKKEHPDRFIECYIAEQNMVSIAVGCATRNRTVPFCSTFAAFFTRAFDQIRMAAISESNINLCGSHCGVSIGEDGPSQMALEDLAMFRSVPTSTVFYPSDGVATEKAVELAANTKGICFIRTSRPENAIIYNNNEDFQVGQAKVVLKSKDDQVTVIGAGVTLHEALAAAELLKKEKINIRVLDPFTIKPLDRKLILDSARATKGRILTVEDHYYEGGIGEAVSSAVVGEPGITVTHLAVNRVPRSGKPAELLKMFGIDRDAIAQAVRGLITKA | 4 | 4 | – | –
